These are yes or no findings as the source states them, for the method shown. For some of these results: Binding seen in cells or lysates may run through a third protein. Some entries that bind do so weakly or less than the wild type.
Assays:
[1] = target: Mcl-1 (wild type) (Homo sapiens (Human)) (UniProt Q07820); assay: co-immunoprecipitation with endogenous protein, HEK293 cells
Bcl-2 (wild type) [2] = target: Bcl-2 (wild type) (UniProt P10415); assay: as above
[3] = target: Mcl-1 (wild type) (Homo sapiens (Human)) (UniProt Q07820); assay: co-immunoprecipitation, FIG. 5B legend
Bcl-2 (wild type) [4] = target: Bcl-2 (wild type) (UniProt P10415); assay: co-immunoprecipitation, FIG. 5B legend
[5] = target: Mcl-1 (wild type) (Homo sapiens (Human)) (UniProt Q07820); assay: Flag-Atg12 immunoprecipitates from HEK293 cells incubated with ABT-737, western blot
Bcl-2 (wild type) [6] = target: Bcl-2 (wild type) (UniProt P10415); assay: co-immunoprecipitation on anti-FLAG beads, transiently transfected HEK293 cells, western blot
[7] = target: Mcl-1 (wild type) (Homo sapiens (Human)) (UniProt Q07820); assay: co-immunoprecipitation, co-transfected HEK293 cells
Bcl-2 (wild type) [8] = target: Bcl-2 (wild type) (UniProt P10415); assay: co-immunoprecipitation, HeLa cells treated with STS
[9] = target: Mcl-1 (wild type) (Homo sapiens (Human)) (UniProt Q07820); assay: co-immunoprecipitation, FIG. 5C legend
Bcl-2 (wild type) [10] = target: Bcl-2 (wild type) (UniProt P10415); assay: co-immunoprecipitation, FIG. 5C legend
Bcl-2 (wild type) [11] = target: Bcl-2 (wild type) (UniProt P10415); assay: co-immunoprecipitation, FIG. 5E legend
[12] = target: HA-tagged p38 (human p38 alpha) (human) (UniProt Q16539); assay: co-immunoprecipitation, FIG. 13 legend
[13] = target: HA-tagged p38 (human p38 alpha) (human) (UniProt Q16539); assay: co-immunoprecipitation of overexpressed proteins, HEK293 cells
Bcl-2 (wild type) [14] = target: Bcl-2 (wild type) (UniProt P10415); assay: co-immunoprecipitation, FIG. 7B legend
Bcl-2 (wild type) [15] = target: Bcl-2 (wild type) (UniProt P10415); assay: co-immunoprecipitation, transiently transfected HEK293 cells
[16] = target: Mcl-1 (wild type) (Homo sapiens (Human)) (UniProt Q07820); assay: co-immunoprecipitation
[17] = target: Mcl-1 (wild type) (Homo sapiens (Human)) (UniProt Q07820); assay: endogenous co-immunoprecipitation with anti-Atg12 monoclonal antibody
[18] = target: Mcl-1 (wild type) (Homo sapiens (Human)) (UniProt Q07820); assay: endogenous co-immunoprecipitation, FIG. 5D legend
Bcl-2 (wild type) [19] = target: Bcl-2 (wild type) (UniProt P10415); assay: co-immunoprecipitation, co-transfected HEK293 cells

By UniProt entry, the sequences of proteins in these tests, tags left out. Where a name states a change or a piece, a line headed by the entry shows the natural chain unless it says otherwise.
UniProt Q07820: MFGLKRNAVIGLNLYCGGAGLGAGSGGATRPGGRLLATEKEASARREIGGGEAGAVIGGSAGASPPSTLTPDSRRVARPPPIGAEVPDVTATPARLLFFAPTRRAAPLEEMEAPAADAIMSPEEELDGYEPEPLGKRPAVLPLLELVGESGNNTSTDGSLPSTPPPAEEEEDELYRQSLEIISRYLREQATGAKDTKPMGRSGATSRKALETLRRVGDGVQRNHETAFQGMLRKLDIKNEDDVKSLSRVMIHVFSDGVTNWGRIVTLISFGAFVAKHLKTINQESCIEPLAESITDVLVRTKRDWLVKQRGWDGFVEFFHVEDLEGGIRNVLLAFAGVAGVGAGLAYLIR
UniProt P10415: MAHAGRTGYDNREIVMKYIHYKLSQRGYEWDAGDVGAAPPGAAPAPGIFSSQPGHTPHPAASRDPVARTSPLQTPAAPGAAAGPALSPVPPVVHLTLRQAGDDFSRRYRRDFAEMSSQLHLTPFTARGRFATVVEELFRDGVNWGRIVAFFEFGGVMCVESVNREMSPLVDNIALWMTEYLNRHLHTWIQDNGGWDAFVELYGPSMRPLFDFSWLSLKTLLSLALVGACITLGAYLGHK
UniProt Q16539: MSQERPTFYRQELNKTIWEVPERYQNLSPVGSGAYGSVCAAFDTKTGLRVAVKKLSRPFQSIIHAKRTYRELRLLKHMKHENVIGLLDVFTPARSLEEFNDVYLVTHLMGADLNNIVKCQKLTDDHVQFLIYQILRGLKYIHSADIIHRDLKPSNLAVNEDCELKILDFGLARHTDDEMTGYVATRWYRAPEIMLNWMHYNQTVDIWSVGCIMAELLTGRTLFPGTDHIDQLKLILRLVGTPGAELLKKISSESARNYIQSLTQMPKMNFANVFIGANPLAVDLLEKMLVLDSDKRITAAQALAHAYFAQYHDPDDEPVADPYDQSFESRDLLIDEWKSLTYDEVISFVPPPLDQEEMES
UniProt O94817: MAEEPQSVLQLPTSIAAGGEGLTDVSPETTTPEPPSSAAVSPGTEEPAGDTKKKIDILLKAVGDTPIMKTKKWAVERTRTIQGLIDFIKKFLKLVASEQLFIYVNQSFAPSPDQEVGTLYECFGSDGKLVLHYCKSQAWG

Measured: binding

Flag-tagged human Atg12 (wild type) (from UniProt O94817 1-140)
not listed: Bcl-2 (wild type) [14] | Bcl-2 (wild type) [15] | [16] | [17] | [18] | Bcl-2 (wild type) [19]
binds: all other assays above

Atg12ΔG140 (from UniProt O94817 1-139)
binds: Bcl-2 (wild type) [14] | Bcl-2 (wild type) [15]

Flag-tagged Atg12 F101A (from UniProt O94817 1-140)
binds: [16]

Atg12 (human; untagged, endogenous, or tag not stated) (from UniProt O94817 1-140)
binds: [17] | Bcl-2 (wild type) [14] | [18] | Bcl-2 (wild type) [15]

Flag-tagged Atg12 D64A (from UniProt O94817 1-140)
binds: Bcl-2 (wild type) [19]

Atg12 T65A (from UniProt O94817 1-140)
binds: [16]
